In US20190284272A1 (published 2019):

Key:
[1] = biological target: canine IL-31 protein (Canine_IL31) (canine); experiment: SPR (Biacore)
[2] = biological target: wildtype feline IL-31 protein (Feline_IL31_wildtype) (feline); experiment: SPR (Biacore)
[3] = biological target: canine IL-31 protein (Canine_IL31) (canine); experiment: SPR (Biacore), FIG. 2 Section B
[4] = biological target: wildtype feline IL-31 protein (Feline_IL31_wildtype) (feline); experiment: SPR (Biacore), FIG. 2 Section B
[5] = biological target: canine IL-31 protein (Canine_IL31) (canine); experiment: SPR (Biacore), FIG. 2
[6] = biological target: wildtype feline IL-31 protein (Feline_IL31_wildtype) (feline); experiment: SPR (Biacore), FIG. 2
[7] = biological target: canine IL-31 protein (Canine_IL31) (canine); experiment: SPR (Biacore), FIG. 2 Section C
[8] = biological target: wildtype feline IL-31 protein (Feline_IL31_wildtype) (feline); experiment: SPR (Biacore), FIG. 2 Section C
[9] = biological target: canine IL-31 protein (Canine_IL31) (canine); experiment: SPR (Biacore), IL-31 protein as surface
[10] = biological target: mutant feline IL-31 11E12 protein (Feline_IL31_11E12_mutant) (feline); experiment: SPR (Biacore), IL-31 protein as surface
[11] = biological target: wildtype feline IL-31 protein (Feline_IL31_wildtype) (feline); experiment: SPR (Biacore), IL-31 protein as surface
[12] = biological target: wildtype feline IL-31 protein (Feline_IL31_wildtype) (feline); experiment: SPR (Biacore), FIG. 2 Section D
[13] = biological target: wildtype feline IL-31 protein (Feline_IL31_wildtype) (feline); experiment: SPR (Biacore), values in FIG. 2
[14] = biological target: mutant feline IL-31 15H05 protein (Feline_IL31_15H05_mutant) (feline); experiment: Biacore, IL-31 surface, single antibody concentration (FIG. 4)
[15] = biological target: wildtype feline IL-31 protein (Feline_IL31_wildtype) (feline); experiment: as above
[16] = biological target: canine IL-31 protein (Canine_IL31) (canine); experiment: as above
[17] = biological target: wildtype feline IL-31 protein (Feline_IL31_wildtype) (feline); experiment: SPR (Biacore), FIG. 2 Sections A and B
[18] = biological target: canine IL-31 protein (Canine_IL31) (canine); experiment: SPR (Biacore), FIG. 2 Sections A and C
[19] = biological target: wildtype feline IL-31 protein (Feline_IL31_wildtype) (feline); experiment: SPR (Biacore), FIG. 2 Sections A and C

B1: Feline 11E12 1.1 (antibody, V domains shown)
VH: QVLLVQSGAEVKKPGASVKIFCKASGYSFTYYDINWLRQAPEQGLEWMGWIFPGDGGTKYNETFKGRLTLTADTSTNTVYMELSSLRSADTAMYYCARGGTSVIRDAMDYWGQGALVTVSS
VL: EIQMTQSPSSLSASPGDRVTITCRASESVDNYGISFMHWYQQKPGKVPKLLIYRASNLESGVPSRFSGSGSGTDFTLTISSLEPEDAATYYCQQSNKDPLTFGQGT
binding [1]: binds
binding [2]: binds
binding [3]: binds
binding [4]: binds

B2: Feline 15H05 1.1 FW2 (antibody, V domains shown)
VH: QVLLVQSGAEVRTPGASVKIFCKASGYSFTSYTIHWLRQAPAQGLEWMGNINPTSGYTENNQRFKDRLTLTADTSTNTAYMELSSLRSADTAMYYCARWGFKYDGEWSFDVWGAGTTVTVSS
VL: EIQMTQSPSSLSASPGDRVTITCRASQGISIWLSWYQQKPGNIPKVLINKASNLHIGVPSRFSGSGSGTDFTLTISSLEPEDAATYYCLQSQTYPLTFGGGTKLEIK
binding [5]: binds
binding [6]: binds
binding [7]: binds
binding [8]: binds

B3: ZTS-1505 (antibody)
heavy: QVLLVQSGAEVRTPGASVKIFCKASGYSFTSYTIHWLRQAPAQGLEWMGNINPTSGYTENNQRFKDRLTLTADTSTNTAYMELSSLRSADTAMYYCARWGFKYDGEWSFDVWGAGTTVTVSSASTTAPSVFPLAPSCGTTSGATVALACLVLGYFPEPVTVSWNSGALTSGVHTFPAVLQASGLYSLSSMVTVPSSRWLSDTFTCNVAHPPSNTKVDKTVRKTDHPPGPKPCDCPKCPPPEAAGAPSIFIFPPKPKDTLSISRTPEVTCLVVDLGPDDSDVQITWFVDNTQVYTAKTSPREEQFNSTYRVVSVLPILHQDWLKGKEFKCKVNSKSLPSPIERTISKAKGQPHEPQVYVLPPAQEELSRNKVSVTCLIKSFHPPDIAVEWEITGQPEPENNYRTTPPQLDSDGTYFVYSKLSVDRSHWQRGNTYTCSVSHEALHSHHTQKSLTQSPGK
light: EIQMTQSPSSLSASPGDRVTITCRASQGISIWLSWYQQKPGNIPKVLINKASNLHIGVPSRFSGSGSGTDFTLTISSLEPEDAATYYCLQSQTYPLTFGGGTKLEIKRSDAQPSVFLFQPSLDELHTGSASIVCILNDFYPKEVNVKWKVDGVVQNKGIQESTTEQNSKDSTYSLSSTLTMSSTEYQSHEKFSCEVTHKSLASTLVKSFQRSEC
notes: also called ZT-1 505
binding [9]: binds
binding [10]: binds
binding [11]: binds

B4: ZTS-361 (antibody)
heavy: B3 heavy
light: EIQMTQSPSSLSASPGDRVTITCRASQGISIWLSWYQQKPGNIPKVLINKASNLHIGVPSRFSGSGSGTDFTLTISSLEPEDAATYYCLQSQTYPLTFGGGTKLEIKRSDAQPSVFLFQPSLDELHTGSASIVCILNDFYPKEVNVKWKVDGVVQNKGIQESTTEQNSKDSTYSLSSTLTMSSTEYQSHEKFSCEVTHKSLASTLVKSFQRSECQRE
notes: Felinized 15H05 1.1 FW2, effector-null feline heavy constant region
binding [12]: binds
binding [10]: binds

B5: mouse anti IL-31 antibody 11E12 (antibody, V domains shown)
VH: QVQLQQSGAELVKPGASVKLSCKASGYTFKYYDINWVRQRPEQGLEWIGWIFPGDGGTKYNETFKGKATLTTDKSSSTAYMQLSRLTSEDSAVYFCARGGTSVIRDAMDYWGQGTSVTVSS
VL: DIVLTQSPASLAVSLGQRATISCRASESVDNYGISFMHWYQQKPGQPPKLLIYRASNLESGIPARFSGSGSRTDFTLTINPVETDDVATYYCQQSNKDPLTFGAGTKLELK
binding [13]: binds
binding [14]: binds
binding [15]: binds

B6: ZIL94 (antibody, V domains shown)
VH: EVQLVDSGGDLVKPGGSLRLSCVASGFTFSTYFMSWVRQAPGRGLQWVALISSDGSGTYYADAVKGRFTISRDNAKNTLYLQMNSLRAEDTAMYYCAIFWRAFNDWGQGTLVTVSS
VL: QTVVIQEPSLSVSPGGTVTLTCGLNSGSVSTSNYPGWYQQTRGRTPRTIIYDTGSRPSGVPNRFSGSISGNKAALTITGAQPEDEADYYCSLYTDSDILVFGGGTHLTVLR
binding [16]: binds
binding [15]: binds

B7: ZIL159 (antibody, V domains shown)
VH: EVQLVESGGDLVKPAGSLRLSCVASGFTFSSYVMTWVRQAPGKGLQWVAGINSEGSRTAYADAVKGRFTISRDNAKNTLYLQIDSLRAEDTAIYYCATGDIVATGTSYWGQGTLVTVSS
VL: SNVLTQPPSVSVSLGQTATISCSGETLNRFYTQWFQQKAGQAPVLVIYKDTERPSGIPDRFSGSSSGNIHTLTISGARAEDEAAYYCKSAVSIDVGVFGGGTHLTVFR
binding [16]: binds
binding [15]: binds

B8: Feline 11E12 1.1 FW2 (antibody, V domains shown)
VH: B1 VH
VL: B1 VL with K46Q, V47P
binding [3]: binds
binding [17]: binds

B9: Feline 15H05 VH1 mouse VL (antibody, V domains shown)
VH: B2 VH
VL: DIQMNQSPSSLSASLGDTITVTCRASQGISIWLSWYQQKPGNIPKVLINKASNLHIGVPPRFSGSGSGTHFTLTITSLQPEDIATYYCLQSQTYPLTFGGGTKLEIN
binding [18]: binds
binding [19]: binds

B10: Feline 15H05 VH3 mouse VL (antibody, V domains shown)
VH: B2 VH with T13K, A42E
VL: B9 VL
binding [18]: binds
binding [19]: binds

B11: ZTS-927 (antibody)
heavy: B3 heavy with A242M, A243L, A245G
light: B4 light
binding [12]: binds

Changes are numbered by the printed parent chain. These are yes or no findings as the source states them, for the method shown. Binding can be weak; no strength is given.
